Drawing on paper PMC3783882, this text covers binding for two substances.

By UniProt entry, the sequences of proteins in these tests, tags left out. Residues count along the entry.
UniProt Q9JJN1, residues 29-210: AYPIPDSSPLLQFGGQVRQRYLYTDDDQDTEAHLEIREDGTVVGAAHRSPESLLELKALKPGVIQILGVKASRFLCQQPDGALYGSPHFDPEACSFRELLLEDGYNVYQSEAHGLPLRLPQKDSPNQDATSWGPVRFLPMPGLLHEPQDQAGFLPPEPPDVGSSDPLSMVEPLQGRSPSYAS
UniProt P16092, residues 22-822: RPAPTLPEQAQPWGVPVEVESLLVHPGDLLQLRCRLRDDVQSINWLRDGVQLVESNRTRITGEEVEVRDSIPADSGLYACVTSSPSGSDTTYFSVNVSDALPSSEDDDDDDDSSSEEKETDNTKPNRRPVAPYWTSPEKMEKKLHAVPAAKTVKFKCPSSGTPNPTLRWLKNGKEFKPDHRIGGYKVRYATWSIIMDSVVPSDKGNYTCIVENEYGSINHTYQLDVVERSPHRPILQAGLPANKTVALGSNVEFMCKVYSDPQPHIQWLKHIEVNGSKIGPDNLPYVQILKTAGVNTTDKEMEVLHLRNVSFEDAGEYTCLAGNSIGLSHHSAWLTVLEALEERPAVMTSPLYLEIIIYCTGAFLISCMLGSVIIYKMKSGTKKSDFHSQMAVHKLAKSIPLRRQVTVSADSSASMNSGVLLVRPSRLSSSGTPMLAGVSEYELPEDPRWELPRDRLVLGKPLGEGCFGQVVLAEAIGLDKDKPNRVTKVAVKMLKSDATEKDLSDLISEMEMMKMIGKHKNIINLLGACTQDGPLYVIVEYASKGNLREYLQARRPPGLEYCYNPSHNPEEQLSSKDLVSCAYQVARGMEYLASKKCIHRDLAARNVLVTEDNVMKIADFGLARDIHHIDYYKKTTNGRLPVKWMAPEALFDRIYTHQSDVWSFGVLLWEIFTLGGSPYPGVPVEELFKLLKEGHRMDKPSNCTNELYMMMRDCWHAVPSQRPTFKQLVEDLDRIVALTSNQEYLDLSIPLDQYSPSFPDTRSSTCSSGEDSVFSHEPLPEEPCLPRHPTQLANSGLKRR
UniProt Q61851, residues 21-801: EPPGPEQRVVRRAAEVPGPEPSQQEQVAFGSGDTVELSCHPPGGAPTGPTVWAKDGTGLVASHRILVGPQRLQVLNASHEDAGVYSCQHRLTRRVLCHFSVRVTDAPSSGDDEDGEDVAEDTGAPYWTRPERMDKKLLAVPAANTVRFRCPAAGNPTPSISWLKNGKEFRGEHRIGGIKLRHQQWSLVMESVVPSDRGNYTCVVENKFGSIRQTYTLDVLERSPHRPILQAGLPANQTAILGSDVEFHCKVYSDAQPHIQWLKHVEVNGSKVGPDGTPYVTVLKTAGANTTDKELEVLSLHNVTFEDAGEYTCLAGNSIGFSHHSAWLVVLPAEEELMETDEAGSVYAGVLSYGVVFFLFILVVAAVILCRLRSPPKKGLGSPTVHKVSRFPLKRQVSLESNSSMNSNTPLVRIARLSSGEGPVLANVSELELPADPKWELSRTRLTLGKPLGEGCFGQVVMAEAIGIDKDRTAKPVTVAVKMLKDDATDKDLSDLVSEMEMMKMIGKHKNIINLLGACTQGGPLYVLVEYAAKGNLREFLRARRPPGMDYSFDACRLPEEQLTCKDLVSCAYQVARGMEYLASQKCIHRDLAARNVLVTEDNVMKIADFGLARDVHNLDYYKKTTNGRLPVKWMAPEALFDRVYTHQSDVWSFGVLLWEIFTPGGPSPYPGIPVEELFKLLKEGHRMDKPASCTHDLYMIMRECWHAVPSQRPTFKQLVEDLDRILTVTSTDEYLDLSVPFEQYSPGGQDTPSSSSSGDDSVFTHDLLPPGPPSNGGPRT

For experiment [1], the target named is recombinant mouse FGF21 (mouse) (UniProt Q9JJN1). Description: co-IP; cardiomyocytes freshly isolated from healthy wild-type mice incubated in vitro with recombinant mouse FGF21 (50 ng/ml), 5 to 120 min; lysed in RIPA buffer; co-immunoprecipitation and immunoblot; only the target purified.
The target of experiment [2] is FGF21 (in cardiomyocytes isolated from the ischemic myocardium of wild-type mice) (mouse (endogenous in wild-type mice)) (UniProt Q9JJN1). Description: co-IP; cardiomyocytes isolated from the ischemic myocardium of wild-type mice at 1, 3 and 5 days after ischemia/reperfusion injury; myocardial injection of β-Klotho siRNA or control siRNA 3 days before injury; immunoprecipitation and immunoblot. (A western blot detects proteins with antibodies after separation by electrophoresis.)

These are yes or no findings as the source states them, for the method shown. Binding seen in cells or lysates may run through a third protein. Some binding calls cover weakened binding; strength is not graded here.

With “FGFR1 (from UniProt P16092 22-822) (receptor)”, the binding result in experiment [1] and in experiment [2] was “binds” in each case.

As for “FGFR3 (from UniProt Q61851 21-801) (receptor)”, the binding entry in experiment [1] was “no binding (tested: 50 ng/ml)”.
